According to the supplement of paper PMC10849652:
This is one part of the list. Residues, ends and D or L forms follow the SMILES beside them. *: point of attachment. Cbz = O=C(OCc1ccccc1)*

The chains behind the UniProt entries cited, without tags or fusion partners. Where a name states a change or a piece, a line headed by the entry shows the natural chain unless it says otherwise.
UniProt Q9NRN9: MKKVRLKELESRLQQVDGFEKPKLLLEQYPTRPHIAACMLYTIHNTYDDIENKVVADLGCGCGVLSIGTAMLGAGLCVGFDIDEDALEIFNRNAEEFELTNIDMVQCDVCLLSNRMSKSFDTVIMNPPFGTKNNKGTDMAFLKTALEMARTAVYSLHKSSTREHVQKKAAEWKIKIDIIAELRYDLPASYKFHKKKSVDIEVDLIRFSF
UniProt O95983: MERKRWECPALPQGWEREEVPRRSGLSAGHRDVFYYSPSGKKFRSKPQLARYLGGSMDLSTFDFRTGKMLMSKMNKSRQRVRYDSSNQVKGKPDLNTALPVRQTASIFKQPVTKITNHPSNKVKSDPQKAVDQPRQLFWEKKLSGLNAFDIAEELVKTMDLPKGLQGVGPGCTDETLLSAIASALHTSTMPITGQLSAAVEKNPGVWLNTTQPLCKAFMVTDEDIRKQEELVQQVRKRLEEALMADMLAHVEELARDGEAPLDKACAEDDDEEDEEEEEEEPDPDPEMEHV
UniProt Q5JRA6: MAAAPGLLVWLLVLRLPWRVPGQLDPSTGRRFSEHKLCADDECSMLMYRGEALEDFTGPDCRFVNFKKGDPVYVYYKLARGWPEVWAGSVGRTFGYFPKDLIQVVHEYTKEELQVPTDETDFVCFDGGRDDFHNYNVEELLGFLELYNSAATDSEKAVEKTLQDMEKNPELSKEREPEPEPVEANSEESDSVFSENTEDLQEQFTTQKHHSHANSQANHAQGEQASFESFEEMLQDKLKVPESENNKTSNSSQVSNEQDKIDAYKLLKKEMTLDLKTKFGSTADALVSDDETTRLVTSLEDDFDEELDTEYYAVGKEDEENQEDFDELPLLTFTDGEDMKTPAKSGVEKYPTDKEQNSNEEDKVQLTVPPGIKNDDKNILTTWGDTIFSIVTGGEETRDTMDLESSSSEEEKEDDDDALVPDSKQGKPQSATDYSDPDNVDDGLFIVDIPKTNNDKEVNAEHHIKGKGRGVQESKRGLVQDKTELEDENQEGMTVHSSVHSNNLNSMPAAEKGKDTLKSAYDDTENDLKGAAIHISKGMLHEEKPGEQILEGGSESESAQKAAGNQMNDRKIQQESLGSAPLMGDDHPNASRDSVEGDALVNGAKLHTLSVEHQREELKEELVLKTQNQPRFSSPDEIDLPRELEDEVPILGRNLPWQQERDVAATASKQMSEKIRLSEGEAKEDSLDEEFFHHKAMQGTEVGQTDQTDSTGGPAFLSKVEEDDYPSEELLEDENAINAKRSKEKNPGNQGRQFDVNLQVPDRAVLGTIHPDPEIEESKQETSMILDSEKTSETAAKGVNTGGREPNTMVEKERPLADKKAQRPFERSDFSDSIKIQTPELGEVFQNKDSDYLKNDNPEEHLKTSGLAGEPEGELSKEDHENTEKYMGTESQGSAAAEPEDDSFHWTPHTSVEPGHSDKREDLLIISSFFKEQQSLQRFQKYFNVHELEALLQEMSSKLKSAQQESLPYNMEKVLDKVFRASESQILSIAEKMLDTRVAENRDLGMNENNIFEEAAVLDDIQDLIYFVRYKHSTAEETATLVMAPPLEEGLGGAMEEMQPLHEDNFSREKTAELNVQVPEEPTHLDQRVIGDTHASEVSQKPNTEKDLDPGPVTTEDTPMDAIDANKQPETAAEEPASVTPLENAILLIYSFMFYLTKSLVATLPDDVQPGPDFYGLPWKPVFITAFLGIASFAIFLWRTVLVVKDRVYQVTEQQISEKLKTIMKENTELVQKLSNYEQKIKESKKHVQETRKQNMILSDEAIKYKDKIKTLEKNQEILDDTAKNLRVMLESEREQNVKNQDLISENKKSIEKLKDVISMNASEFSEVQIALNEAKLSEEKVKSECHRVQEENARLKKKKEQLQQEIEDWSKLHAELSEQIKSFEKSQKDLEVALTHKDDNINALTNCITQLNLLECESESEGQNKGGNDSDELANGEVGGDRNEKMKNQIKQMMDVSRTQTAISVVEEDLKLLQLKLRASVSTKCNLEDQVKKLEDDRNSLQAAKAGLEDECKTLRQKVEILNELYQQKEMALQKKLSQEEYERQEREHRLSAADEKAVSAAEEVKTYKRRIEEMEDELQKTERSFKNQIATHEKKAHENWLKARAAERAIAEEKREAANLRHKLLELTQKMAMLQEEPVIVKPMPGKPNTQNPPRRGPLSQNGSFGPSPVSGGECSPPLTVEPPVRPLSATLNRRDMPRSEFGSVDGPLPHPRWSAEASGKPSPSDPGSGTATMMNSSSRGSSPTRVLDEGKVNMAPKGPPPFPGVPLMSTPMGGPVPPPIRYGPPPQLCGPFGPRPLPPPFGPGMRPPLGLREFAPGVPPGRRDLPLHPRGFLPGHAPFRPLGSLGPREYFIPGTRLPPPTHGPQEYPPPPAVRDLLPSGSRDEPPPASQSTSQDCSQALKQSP
UniProt Q9H944: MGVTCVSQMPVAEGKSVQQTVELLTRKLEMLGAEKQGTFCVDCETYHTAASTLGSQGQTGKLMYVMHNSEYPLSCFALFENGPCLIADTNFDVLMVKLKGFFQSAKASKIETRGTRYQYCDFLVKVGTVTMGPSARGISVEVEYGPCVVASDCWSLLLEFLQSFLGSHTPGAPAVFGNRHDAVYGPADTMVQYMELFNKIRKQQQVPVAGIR
UniProt P33992: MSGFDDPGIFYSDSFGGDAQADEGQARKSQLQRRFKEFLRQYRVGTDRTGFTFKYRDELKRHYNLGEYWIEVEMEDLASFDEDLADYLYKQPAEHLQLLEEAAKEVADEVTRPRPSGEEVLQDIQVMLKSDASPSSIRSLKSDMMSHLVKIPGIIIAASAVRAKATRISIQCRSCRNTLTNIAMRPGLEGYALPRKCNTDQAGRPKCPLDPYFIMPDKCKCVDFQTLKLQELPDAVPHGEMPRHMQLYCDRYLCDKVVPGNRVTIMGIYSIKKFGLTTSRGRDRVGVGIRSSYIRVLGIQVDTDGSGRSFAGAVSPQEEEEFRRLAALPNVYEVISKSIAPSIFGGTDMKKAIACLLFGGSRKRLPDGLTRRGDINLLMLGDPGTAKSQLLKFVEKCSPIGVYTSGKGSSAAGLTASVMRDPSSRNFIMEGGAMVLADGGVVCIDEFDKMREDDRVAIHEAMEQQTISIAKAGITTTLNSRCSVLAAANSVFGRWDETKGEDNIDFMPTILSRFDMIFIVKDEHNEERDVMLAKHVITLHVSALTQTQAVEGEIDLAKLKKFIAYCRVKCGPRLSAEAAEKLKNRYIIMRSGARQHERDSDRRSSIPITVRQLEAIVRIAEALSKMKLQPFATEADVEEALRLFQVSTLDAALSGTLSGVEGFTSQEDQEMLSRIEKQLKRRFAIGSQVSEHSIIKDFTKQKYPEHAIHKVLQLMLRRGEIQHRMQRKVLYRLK
UniProt Q10469: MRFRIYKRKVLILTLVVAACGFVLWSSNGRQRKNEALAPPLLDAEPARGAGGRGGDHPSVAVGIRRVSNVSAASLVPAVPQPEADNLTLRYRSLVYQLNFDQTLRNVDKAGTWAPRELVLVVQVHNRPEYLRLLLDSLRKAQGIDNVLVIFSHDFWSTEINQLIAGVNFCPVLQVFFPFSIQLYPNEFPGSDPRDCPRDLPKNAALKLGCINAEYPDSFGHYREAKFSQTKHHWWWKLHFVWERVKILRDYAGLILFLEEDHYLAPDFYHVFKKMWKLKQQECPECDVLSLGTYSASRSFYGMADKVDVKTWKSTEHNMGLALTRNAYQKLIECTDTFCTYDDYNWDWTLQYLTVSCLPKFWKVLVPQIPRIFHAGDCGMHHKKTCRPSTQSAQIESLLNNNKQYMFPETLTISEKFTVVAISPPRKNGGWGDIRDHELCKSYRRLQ
UniProt O60244: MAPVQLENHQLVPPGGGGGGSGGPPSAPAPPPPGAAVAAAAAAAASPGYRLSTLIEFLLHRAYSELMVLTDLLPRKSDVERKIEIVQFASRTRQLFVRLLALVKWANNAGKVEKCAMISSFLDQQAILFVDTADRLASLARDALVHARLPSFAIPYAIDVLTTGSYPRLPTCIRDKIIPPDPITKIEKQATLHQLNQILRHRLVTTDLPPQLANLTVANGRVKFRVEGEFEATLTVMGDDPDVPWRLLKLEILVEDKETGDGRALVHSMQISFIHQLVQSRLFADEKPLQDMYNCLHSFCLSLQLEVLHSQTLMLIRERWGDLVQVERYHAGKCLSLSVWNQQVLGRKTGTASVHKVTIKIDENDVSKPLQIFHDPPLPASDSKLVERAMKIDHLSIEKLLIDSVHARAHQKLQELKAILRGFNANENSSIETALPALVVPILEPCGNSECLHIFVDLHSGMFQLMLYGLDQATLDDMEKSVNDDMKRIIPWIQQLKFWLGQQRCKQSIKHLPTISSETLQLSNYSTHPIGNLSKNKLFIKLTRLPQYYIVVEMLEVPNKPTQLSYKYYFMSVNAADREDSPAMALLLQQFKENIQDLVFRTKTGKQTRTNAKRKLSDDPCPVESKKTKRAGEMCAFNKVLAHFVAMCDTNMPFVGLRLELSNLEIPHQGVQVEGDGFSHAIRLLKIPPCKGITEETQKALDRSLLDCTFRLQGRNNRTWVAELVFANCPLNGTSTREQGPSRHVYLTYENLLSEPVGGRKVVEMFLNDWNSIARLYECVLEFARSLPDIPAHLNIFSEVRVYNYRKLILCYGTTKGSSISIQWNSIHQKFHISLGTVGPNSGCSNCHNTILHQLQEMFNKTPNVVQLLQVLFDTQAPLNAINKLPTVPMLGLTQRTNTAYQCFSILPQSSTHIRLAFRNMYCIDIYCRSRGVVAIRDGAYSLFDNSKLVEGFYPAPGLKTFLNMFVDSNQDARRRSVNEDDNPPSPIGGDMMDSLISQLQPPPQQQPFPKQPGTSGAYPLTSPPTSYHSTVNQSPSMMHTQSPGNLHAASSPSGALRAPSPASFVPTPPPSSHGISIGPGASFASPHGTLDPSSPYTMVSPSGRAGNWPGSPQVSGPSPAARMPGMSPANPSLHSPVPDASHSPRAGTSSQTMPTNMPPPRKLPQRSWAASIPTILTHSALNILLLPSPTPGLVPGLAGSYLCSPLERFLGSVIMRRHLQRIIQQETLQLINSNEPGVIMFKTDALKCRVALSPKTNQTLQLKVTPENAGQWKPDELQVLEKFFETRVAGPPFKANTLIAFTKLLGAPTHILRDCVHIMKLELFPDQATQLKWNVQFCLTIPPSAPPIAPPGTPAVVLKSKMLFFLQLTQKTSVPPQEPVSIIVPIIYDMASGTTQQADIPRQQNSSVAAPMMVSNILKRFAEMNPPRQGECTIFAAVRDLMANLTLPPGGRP
UniProt P33991: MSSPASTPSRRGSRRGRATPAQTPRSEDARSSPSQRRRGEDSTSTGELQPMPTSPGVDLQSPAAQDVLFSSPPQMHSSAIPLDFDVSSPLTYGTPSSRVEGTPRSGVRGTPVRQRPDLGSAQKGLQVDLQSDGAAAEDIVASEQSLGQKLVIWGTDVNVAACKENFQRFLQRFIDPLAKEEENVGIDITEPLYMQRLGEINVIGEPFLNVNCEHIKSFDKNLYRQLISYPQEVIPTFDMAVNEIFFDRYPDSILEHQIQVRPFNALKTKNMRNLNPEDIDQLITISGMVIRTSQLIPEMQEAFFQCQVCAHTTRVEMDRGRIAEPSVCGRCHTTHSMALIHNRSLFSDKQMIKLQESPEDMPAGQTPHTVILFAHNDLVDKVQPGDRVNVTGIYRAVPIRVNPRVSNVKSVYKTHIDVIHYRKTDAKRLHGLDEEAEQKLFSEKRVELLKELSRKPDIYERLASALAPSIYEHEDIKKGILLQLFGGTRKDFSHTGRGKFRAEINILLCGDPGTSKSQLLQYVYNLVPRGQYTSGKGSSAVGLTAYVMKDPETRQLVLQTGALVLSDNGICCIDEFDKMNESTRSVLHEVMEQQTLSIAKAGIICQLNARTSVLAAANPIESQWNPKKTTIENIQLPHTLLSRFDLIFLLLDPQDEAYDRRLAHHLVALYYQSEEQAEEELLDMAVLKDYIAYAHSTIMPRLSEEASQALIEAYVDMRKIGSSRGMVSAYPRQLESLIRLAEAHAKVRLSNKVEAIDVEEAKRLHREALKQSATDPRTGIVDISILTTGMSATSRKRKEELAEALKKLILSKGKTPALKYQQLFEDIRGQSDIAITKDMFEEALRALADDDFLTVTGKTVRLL
UniProt Q9NWR8: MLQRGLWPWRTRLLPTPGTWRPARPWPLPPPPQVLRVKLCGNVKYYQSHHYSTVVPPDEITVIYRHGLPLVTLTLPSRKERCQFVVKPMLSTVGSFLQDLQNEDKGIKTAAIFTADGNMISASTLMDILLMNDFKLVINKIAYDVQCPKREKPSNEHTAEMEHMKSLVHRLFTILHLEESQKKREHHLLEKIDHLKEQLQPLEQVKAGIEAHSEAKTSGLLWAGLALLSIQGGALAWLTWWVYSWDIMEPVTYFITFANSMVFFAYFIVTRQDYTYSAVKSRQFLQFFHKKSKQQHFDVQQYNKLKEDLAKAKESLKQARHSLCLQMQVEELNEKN

How the values were obtained:
Test in all cases: log2 fold change, soluble protein after heating vs DMSO (PISA); higher = thermal stabilisation; K562 cells, 10 uM, 30 min; active = over 0.2 and 3.5 SD of the protein, either way, in both replicates (recomputed)
IRAK-1-4 Inhibitor I = compound: C1COCCN1CCN2C3=CC=CC=C3N=C2NC(=O)C4=CC(=CC=C4)[N+](=O)[O-] [IRAK-1-4 Inhibitor I]
Summary of the method: (§1)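 K562 cells at 2×10^6 cells/mL were exposed to 10 μM compound for 30 min, then aliquots were heated for 3 min across 48°C-58°C, pooled, and extracted in PBS containing 0.5% NP-40 at 4°C. The supernatant after 21,000xg for 90 min was taken as soluble protein and measured by TMTpro 16plex LC-MS/MS with channel sums equalised. Thermal stability is reported relative to control samples, with values from duplicates. Fold changes are given on a log2 scale.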

ibrutinib = compound: C=CC(=O)N1CCC[C@@H](n2nc(-c3ccc(Oc4ccccc4)cc3)c3c(N)ncnc32)C1 [ibrutinib]
Summary of the method: as §1

[1] = compound: CC(=O)c1cnc2ccc(-c3cc(Cl)c(O)c(Cl)c3)nc2c1N[C@H]1CC[C@H](CN(C)C)CC1
Summary of the method: as §1

ralimetinib = compound: CC(C)(C)Cn1c(N)nc2ccc(-c3[nH]c(C(C)(C)C)nc3-c3ccc(F)cc3)nc21 [ralimetinib]
Summary of the method: as §1

[2] = compound: CC(C)(O)CC(=O)NCCn1ccc2ncnc(Nc3ccc(Oc4cccc(C(F)(F)F)c4)c(Cl)c3)c21
Summary of the method: as §1

[3] = compound: CC(C)C1=C2N=C(C=C(N2N=C1)NCC3=CC=CC=C3)NCCCCCCN
Summary of the method: as §1

[4] = compound: CC(C)C[C@@H](C=O)NC(=O)[C@H](CC(C)C)NC(=O)[C@H](CC(C)C)NC(=O)OCc1ccccc1
Summary of the method: as §1

pinometostat = compound: CC(C)N(C[C@H]1O[C@@H](n2cnc3c(N)ncnc32)[C@H](O)[C@@H]1O)[C@H]1C[C@@H](CCc2nc3cc(C(C)(C)C)ccc3[nH]2)C1 [pinometostat]
Summary of the method: as §1

[5] = compound: CC1=C(C(CC(=O)N1)C2=CC=C(C=C2)C(F)(F)F)C(=O)NC3=C(C=C4C(=C3)C=NN4)F
Summary of the method: as §1

[6] = compound: CC1=C(C2=C(C=C1)C(=O)C3=CC=CC=C3N2CCCN)C
Summary of the method: as §1

[7] = compound: CC1=C(C=C(C=C1)NC(=O)C2=CC(=CC=C2)C(C)(C)C#N)NC3=CC4=C(C=C3)N=CN(C4=O)C
Summary of the method: as §1

[8] = compound: CC1=C(C=C(C=C1)NC(=O)C2=CC(=CC=C2)N(C)C)NC(=O)C3=CC=C(C=C3)O
Summary of the method: as §1

[9] = compound: CC1=CC=C(C=C1)SC2=C3C=C(SC3=CN=C2)C(=O)N
Summary of the method: as §1

[10] = compound: CC1=NC(=CC=C1)C2=C(N=C(N2)C(C)(C)C)C3=CC4=NC=CN=C4C=C3
Summary of the method: as §1

Nexturastat A = compound: CCCCN(Cc1ccc(C(=O)NO)cc1)C(=O)Nc1ccccc1 [Nexturastat A]
Summary of the method: as §1

vemurafenib = compound: CCCS(=O)(=O)Nc1ccc(F)c(C(=O)c2c[nH]c3ncc(-c4ccc(Cl)cc4)cc23)c1F [vemurafenib]
Summary of the method: as §1

[11] = compound: CCCS(=O)(=O)Nc1ccc(F)c(C(=O)c2c[nH]c3ncc(Cl)cc23)c1F
Summary of the method: as §1

[12] = compound: CCCc1cc(C)[nH]c(=O)c1CNC(=O)c1cc(-c2ccnc(N3CCN(C)CC3)c2)cc2c1cnn2C(C)C
Summary of the method: as §1

givinostat = compound: CCN(CC)Cc1ccc2cc(COC(=O)Nc3ccc(C(=O)NO)cc3)ccc2c1 [givinostat]
Summary of the method: as §1

barasertib = compound: CCN(CCCOc1ccc2c(Nc3cc(CC(=O)Nc4cccc(F)c4)[nH]n3)ncnc2c1)CCOP(=O)(O)O [barasertib]
Summary of the method: as §1

Measured: log2 fold change

METTL5 (UniProt Q9NRN9)
inactive: IRAK-1-4 Inhibitor I 0.02 | ibrutinib -0.006 | [1] 0.046 | ralimetinib -0.044 | [2] 0.027 | [3] 0.078 | [4] 0.005 | pinometostat -0.041 | [5] 0.005 | [6] -0.031 | [7] -0.011 | [8] 0.004 | [9] 0.01 | [10] 0.007 | Nexturastat A -0.035 | vemurafenib -0.016 | [11] -0.013 | [12] -0.002 | givinostat 0.01 | barasertib 0.001

MED23 (UniProt Q9ULK4)
inactive: IRAK-1-4 Inhibitor I -0.146 | ibrutinib -0.03 | [1] -0.127 | ralimetinib -0.002 | [2] -0.162 | [3] -0.168 | [4] 0.092 | pinometostat 0.061 | [5] -0.125 | [6] 0.086 | [7] 0.021 | [8] -0.016 | [9] 0.022 | [10] 0.008 | Nexturastat A 0.019 | vemurafenib 0.027 | [11] 0.033 | [12] 0.06 | givinostat 0.049 | barasertib 0.097

METAP2 (UniProt P50579)
inactive: IRAK-1-4 Inhibitor I 0.023 | ibrutinib 0.048 | [1] 0.026 | ralimetinib 0.028 | [2] 0.01 | [3] 0.039 | [4] -0.025 | pinometostat 0.014 | [5] 0.01 | [6] -0.045 | [7] -0.151 | [8] -0.022 | [9] 0.025 | [10] -0.043 | Nexturastat A 0.02 | vemurafenib -0.04 | [11] -0.063 | [12] 0.007 | givinostat -0.22 | barasertib -0.02

MFSD10 (UniProt Q14728)
inactive: IRAK-1-4 Inhibitor I -0.031 | ibrutinib 0.026 | [1] 0.005 | ralimetinib -0.043 | [2] 0.024 | [3] -0.016 | [4] -0.011 | pinometostat 0.049 | [5] -0.091 | [6] 0.067 | [7] -0.069 | [8] 0.02 | [9] -0.046 | [10] -0.035 | Nexturastat A -0.008 | vemurafenib 0.067 | [11] -0.027 | [12] -0.076 | givinostat -0.038 | barasertib -0.013

MAT2B (UniProt Q9NZL9)
inactive: IRAK-1-4 Inhibitor I 0.012 | ibrutinib -0.001 | [1] -0.026 | ralimetinib -0.05 | [2] 0.036 | [3] 0.049 | [4] -0.022 | pinometostat -0.027 | [5] 0.003 | [6] 0.048 | [7] -0.063 | [8] 0.023 | [9] -0.023 | [10] -0.002 | Nexturastat A -0.064 | vemurafenib -0.012 | [11] -0.056 | [12] -0.036 | givinostat 0.003 | barasertib -0.015

METAP1 (UniProt P53582)
inactive: IRAK-1-4 Inhibitor I 0.001 | ibrutinib 0.043 | [1] 0.042 | ralimetinib -0.019 | [2] -0.001 | [3] 0.204 | [4] -0.024 | pinometostat -0.014 | [5] 0.031 | [6] 0.087 | [7] -0.048 | [8] 0.027 | [9] 0.022 | [10] 0.019 | Nexturastat A -0.022 | vemurafenib 0.001 | [11] 0.003 | [12] -0.016 | givinostat -0.076 | barasertib -0.034

MBD3 (UniProt O95983)
inactive: IRAK-1-4 Inhibitor I 0.009 | ibrutinib 0.047 | [1] -0.05 | ralimetinib 0.05 | [2] 0.023 | [3] -0.082 | [4] -0.041 | pinometostat 0.057 | [5] 0.103 | [6] -0.085 | [7] -0.053 | [8] -0.024 | [9] -0.028 | [10] -0.022 | Nexturastat A 0.024 | vemurafenib 0.004 | [11] 0 | [12] 0.041 | givinostat 0.066 | barasertib -0.011

MIA3 (UniProt Q5JRA6)
inactive: IRAK-1-4 Inhibitor I -0.008 | ibrutinib -0.043 | [1] -0.043 | ralimetinib 0 | [2] 0.027 | [3] -0.019 | [4] 0.046 | pinometostat 0.039 | [5] 0.045 | [6] -0.031 | [7] -0.027 | [8] -0.015 | [9] -0.025 | [10] -0.004 | Nexturastat A 0.022 | vemurafenib -0.014 | [11] -0.021 | [12] 0.013 | givinostat -0.006 | barasertib 0.034

MCM2 (UniProt P49736)
inactive: IRAK-1-4 Inhibitor I 0.018 | ibrutinib -0.027 | [1] -0.026 | ralimetinib -0.035 | [2] -0.066 | [3] -0.088 | [4] -0.013 | pinometostat -0.028 | [5] 0.002 | [6] -0.047 | [7] -0.006 | [8] 0.002 | [9] 0.003 | [10] 0.075 | Nexturastat A -0.067 | vemurafenib 0.019 | [11] 0.024 | [12] -0.019 | givinostat -0.015 | barasertib 0.006

2 successive records out of the list so far, quoted:
MIA3 (UniProt Q5JRA6)
inactive: IRAK-1-4 Inhibitor I -0.008 | ibrutinib -0.043 | [1] -0.043 | ralimetinib 0 | [2] 0.027 | [3] -0.019 | [4] 0.046 | pinometostat 0.039 | [5] 0.045 | [6] -0.031 | [7] -0.027 | [8] -0.015 | [9] -0.025 | [10] -0.004 | Nexturastat A 0.022 | vemurafenib -0.014 | [11] -0.021 | [12] 0.013 | givinostat -0.006 | barasertib 0.034

MCM2 (UniProt P49736)
inactive: IRAK-1-4 Inhibitor I 0.018 | ibrutinib -0.027 | [1] -0.026 | ralimetinib -0.035 | [2] -0.066 | [3] -0.088 | [4] -0.013 | pinometostat -0.028 | [5] 0.002 | [6] -0.047 | [7] -0.006 | [8] 0.002 | [9] 0.003 | [10] 0.075 | Nexturastat A -0.067 | vemurafenib 0.019 | [11] 0.024 | [12] -0.019 | givinostat -0.015 | barasertib 0.006

(continued)

MED20 (UniProt Q9H944)
inactive: IRAK-1-4 Inhibitor I 0.033 | ibrutinib -0.04 | [1] -0.056 | ralimetinib 0.024 | [2] -0.025 | [3] -0.014 | [4] -0.014 | pinometostat -0.009 | [5] -0.009 | [6] 0.033 | [7] 0.008 | [8] -0.009 | [9] 0.021 | [10] 0.027 | Nexturastat A 0.076 | vemurafenib 0.036 | [11] -0.002 | [12] -0.052 | givinostat -0.039 | barasertib 0.034

MCM5 (UniProt P33992)
inactive: IRAK-1-4 Inhibitor I 0.015 | ibrutinib -0.025 | [1] -0.042 | ralimetinib 0.013 | [2] -0.04 | [3] -0.025 | [4] -0.04 | pinometostat -0.022 | [5] 0.008 | [6] 0.011 | [7] 0.006 | [8] -0.001 | [9] 0.022 | [10] 0.059 | Nexturastat A -0.032 | vemurafenib 0.037 | [11] 0.067 | [12] -0.014 | givinostat 0.007 | barasertib 0

MGAT2 (UniProt Q10469)
inactive: IRAK-1-4 Inhibitor I 0.007 | ibrutinib 0.039 | [1] -0.011 | ralimetinib -0.026 | [2] -0.054 | [3] -0.11 | [4] 0.005 | pinometostat 0.007 | [5] -0.023 | [6] 0.067 | [7] 0.017 | [8] 0.008 | [9] 0.001 | [10] -0.007 | Nexturastat A -0.001 | vemurafenib 0.038 | [11] 0.016 | [12] 0.19 | givinostat -0.017 | barasertib 0.022

MED14 (UniProt O60244)
inactive: IRAK-1-4 Inhibitor I -0.058 | ibrutinib -0.063 | [1] -0.347 | ralimetinib 0.084 | [2] -0.07 | [3] -0.144 | [4] 0.066 | pinometostat 0.119 | [5] 0.003 | [6] 0.363 | [7] -0.081 | [8] -0.05 | [9] -0.076 | [10] -0.059 | Nexturastat A 0.036 | vemurafenib -0.016 | [11] -0.066 | [12] 0.008 | givinostat 0.036 | barasertib 0.068

MGAT1 (UniProt P26572)
inactive: IRAK-1-4 Inhibitor I -0.021 | ibrutinib 0.01 | [1] -0.087 | ralimetinib -0.029 | [2] 0.078 | [3] 0.058 | [4] -0.009 | pinometostat -0.006 | [5] -0.071 | [6] -0.016 | [7] 0.004 | [8] 0.074 | [9] -0.023 | [10] 0.06 | Nexturastat A -0.005 | vemurafenib 0.002 | [11] 0.001 | [12] 0.019 | givinostat -0.035 | barasertib -0.012

MCM4 (UniProt P33991)
inactive: IRAK-1-4 Inhibitor I 0.004 | ibrutinib -0.037 | [1] -0.055 | ralimetinib -0.041 | [2] -0.038 | [3] -0.037 | [4] -0.022 | pinometostat -0.009 | [5] -0.001 | [6] -0.042 | [7] 0.001 | [8] -0.026 | [9] 0.018 | [10] 0.018 | Nexturastat A -0.059 | vemurafenib 0.015 | [11] 0.045 | [12] -0.031 | givinostat 0.012 | barasertib 0.02

MCUB (UniProt Q9NWR8)
inactive: IRAK-1-4 Inhibitor I 0.186 | ibrutinib -0.009 | [1] -0.076 | ralimetinib 0 | [2] -0.135 | [3] -0.12 | [4] -0.017 | pinometostat -0.108 | [5] -0.04 | [6] 0.006 | [7] 0.047 | [8] 0.008 | [9] 0.009 | [10] 0.116 | Nexturastat A -0.079 | vemurafenib 0.062 | [11] 0.073 | [12] -0.069 | givinostat 0.094 | barasertib 0.085
